Laboratory results reported in PubChem BioAssay AID330 (DTP/NCI, 2004).
The list does not hold the whole screen: it is rich in T/C values a quarter to a half above the control, in often repeated tests (any T/C) and in doses without a T/C. Other doses and runs of a compound stand elsewhere. T/C: endpoint of the treated group in % of that of the vehicle group. Some doses have a count of surviving animals in place of a T/C: the source holds a T/C of zero for them, seemingly a mark for toxic or unscored doses. Some survivor counts are full or nearly so, which does not show that the dose was tolerated: the source hardly ever lists a survival T/C far under the control, and the zero likely stands for such cases as well. Survivors were counted at the toxicity check, usually on the fifth day, unless a day is given; later deaths do not show. Schedule codes are those of the source, read here as Q, the interval in days (D) or hours (H), X, the number of doses. Where survival is the endpoint, the PubChem record calls one and a half times the control and up active, and a quarter to a half above the control has no call in these data; cut-offs in other NCI protocols can differ. Some entries hold several experiments; the values are given in rising order.

System: P388 leukemia ip, CD2F1 mice, survival T/C
Assay: NCI In Vivo Anticancer Drug Screen. Data for tumor model P388 Leukemia (intraperitoneal) in CD2F1 (CDF1) mice
Conditions: T/C endpoint: median survival time, higher T/C = longer survival
[1] = dose: 200.0 mg/kg/injection, schedule: Q04DX003 (ip), vehicle: Klucel (hydroxypropylcellulose) (HPC)
[2] = dose: 400.0 mg/kg/injection, schedule: Q04DX003 (ip), vehicle: Klucel (hydroxypropylcellulose) (HPC)
[3] = dose: 120.0 mg/kg/injection, schedule: Q01DX005 (ip), vehicle: saline with Tween-80
[4] = dose: 240.0 mg/kg/injection, schedule: Q01DX005 (ip), vehicle: saline with Tween-80
[5] = dose: 200.0 mg/kg/injection, schedule: Q01DX009 (ip), vehicle: saline with Tween-80
[6] = dose: 20.0 mg/kg/injection, schedule: Q01DX009 (ip), vehicle: other

For `N#CN=[N+]([O-])c1ccc([N+](=O)[O-])cc1`, the survivor count (dose: 12.5 mg/kg/injection, schedule: Q04DX003 (ip), vehicle: Klucel (hydroxypropylcellulose) (HPC)) was 6 of 6, the survivor count (dose: 25.0 mg/kg/injection, schedule: Q04DX003 (ip), vehicle: Klucel (hydroxypropylcellulose) (HPC)) was 6 of 6 and the survivor count (dose: 50.0 mg/kg/injection, schedule: Q04DX003 (ip), vehicle: Klucel (hydroxypropylcellulose) (HPC)) was 0 of 6. The survivor count (dose: 100.0 mg/kg/injection, schedule: Q04DX003 (ip), vehicle: Klucel (hydroxypropylcellulose) (HPC)) was 3 of 6 and the survivor count [1] was 0 of 6.
In the case of `C=CCSc1nc2ccc(NCn3c(=S)sc4cc([N+](=O)[O-])ccc43)cc2s1`, the survivor count [2] was 0 of 6.
In the case of `Clc1ccnc2ccc3ccccc3c12`, the survivor count (dose: 50.0 mg/kg/injection, schedule: Q01DX009 (ip), vehicle: saline) was 1 of 6.
With `CC(C)NCC(O)c1cc(Br)c(Br)s1` (configuration not stated) the survivor count (dose: 200.0 mg/kg/injection, schedule: Q01DX009 (ip), vehicle: saline) was 1 of 6.
In the case of `CS(=O)(=O)OCC#CCOS(C)(=O)=O`, the T/C (dose: 6.25 mg/kg/injection, schedule: Q01DX009 (ip), vehicle: Klucel (hydroxypropylcellulose) (HPC)) was 133 and 140 % of control, the T/C (dose: 12.5 mg/kg/injection, schedule: Q01DX009 (ip), vehicle: Klucel (hydroxypropylcellulose) (HPC)) was 140 and 143 % of control and the survivor count (dose: 50.0 mg/kg/injection, schedule: Q01DX009 (ip), vehicle: Klucel (hydroxypropylcellulose) (HPC)) was 1 of 6.
With `O=C1CN(c2ccccc2)C(=O)C1C(=O)Nc1ccc(Cl)c(Cl)c1` (configuration not stated) the T/C [3] was 140 and 147 % of control and the survivor count [4] was 6 of 6.
For `[N-]=[N+]=Nc1cc(Cl)nnc1-c1ccccc1`, the survivor count (dose: 120.0 mg/kg/injection, schedule: Q01DX005 (ip), vehicle: Klucel (hydroxypropylcellulose) (HPC)) was 3 of 6 and the survivor count (dose: 240.0 mg/kg/injection, schedule: Q01DX005 (ip), vehicle: Klucel (hydroxypropylcellulose) (HPC)) was 0 of 6.
`Nc1nc(-c2cccnc2)cc(-c2cc(-c3cccnc3)nc(N)n2)n1` was tested, and the survivor count (dose: 240.0 mg/kg/injection, schedule: Q01DX005 (ip), vehicle: saline) was 1 of 6.
In the case of `COc1c(Br)cc(Br)cc1/C=C/[N+](=O)[O-]`, the survivor count (dose: 100.0 mg/kg/injection, schedule: Q01DX009 (ip), vehicle: saline with Tween-80) was 0 of 6 and the survivor count [5] was 0 of 6.
`CSc1nc(NC2OCC(OC(C)=O)C(OC(C)=O)C2OC(C)=O)c(N=C(C)C(C)=O)c(=O)n1C` (configuration not stated) was tested, and the survivor count [4] was 6 of 6.
`COC1CC(C)(OC(C)=O)Cc2cc3c(c(OC(C)=O)c21)C(=O)c1c(OC(C)=O)cc2c(c1C3=O)OC1OC2(C)C(OC(C)=O)C(N(C)C)C1OC(C)=O` (configuration not stated) was tested, and the T/C [6] was 133 % of control and the T/C (dose: 40.0 mg/kg/injection, schedule: Q01DX009 (ip), vehicle: other) was 137 % of control.
For `COc1cc(Br)c(CC(NC=O)c2ccc3c(c2)OCO3)cc1OC` (configuration not stated), the survivor count [3] was 6 of 6 and the survivor count [4] was 6 of 6.
In the case of `Cc1c(-c2ccccc2)ccnc1/C=N/NC(=S)NCc1cccnc1`, the survivor count [5] was 0 of 6.
With `c1ccc2c(NCCCCCCCCCCCCCCCCNc3c4ccccc4nc4ccccc34)c3ccccc3nc2c1` the survivor count [6] was 3 of 6.
In the case of `CCN(CC)CCSCCCN=c1c2ccc(Cl)cc2n(O)c2ccc(OC)nc12`, the survivor count (dose: 200.0 mg/kg/injection, schedule: Q01DX009 (ip), vehicle: saline + alcohol) was 0 of 6.
For `Cc1coc2c1C(=O)C(=O)c1c-2ccc2c1CCCC2(C)CO` (configuration not stated) (tested in a mixture with another compound), the survivor count [5] was 3 of 3.
With `CCc1ccc(N2C(=O)C(CC(=O)O)SC23C(=O)N(Cc2ccccc2)c2ccccc23)cc1` (configuration not stated) the survivor count [4] was 6 of 6.
`NNc1c(C(N)=O)c2c(N)ncnc2n1C1OC(CO)C(O)C1O` (configuration not stated) was tested, and the survivor count (dose: 50.0 mg/kg/injection, schedule: Q01DX005 (ip), vehicle: Klucel (hydroxypropylcellulose) (HPC)) was 6 of 6, the T/C (dose: 50.0 mg/kg/injection, schedule: Q04DX003 (ip), vehicle: water) was 127 % of control and the survivor count (dose: 100.0 mg/kg/injection, schedule: Q01DX005 (ip), vehicle: Klucel (hydroxypropylcellulose) (HPC)) was 6 of 6. For the same molecule, the survivor count (dose: 200.0 mg/kg/injection, schedule: Q01DX005 (ip), vehicle: Klucel (hydroxypropylcellulose) (HPC)) was 0 of 6, the survivor count [1] was 4 of 6 and the survivor count [2] was 0 of 6. For the same molecule, the survivor count (dose: 400.0 mg/kg/injection, schedule: Q04DX003 (ip), vehicle: water) was 4 of 6.
For `[Mn+2].[NH-]CC(=O)NC(Cc1ccccc1)C(=O)O.[NH-]CC(=O)NC(Cc1ccccc1)C(=O)O` (configuration not stated), the survivor count (dose: 400.0 mg/kg/injection, schedule: Q04DX003 (ip), vehicle: saline) was 6 of 6.
In the case of `CCCC(CCC)(C(=O)Nc1ccc2nc(C)cc(N)c2c1)C(=O)Nc1ccc2nc(C)cc(N)c2c1`, the survivor count (dose: 200.0 mg/kg/injection, schedule: Q01DX005 (ip), vehicle: saline with Tween-80) was 2 of 5.
